The list shows a part of the results.
Key:
Test in all cases: log2 fold change, soluble protein after heating vs DMSO (PISA); higher = thermal stabilisation; K562 lysate, 10 uM; active = over 0.2 and 3.5 SD of the protein, either way, in both replicates (recomputed)
[1] = compound: CN1CC[C@H](c2c(O)cc(O)c3c(=O)cc(-c4ccccc4Cl)oc23)[C@H](O)C1 [alvocidib]
Outline: (§1)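 Pellets of K562 cells were dounce-homogenised in PBS pH 7.4 with 1 mM MgCl2, and the crude extract was held at 1 mg/mL protein for a 30 min treatment with 10 μM compound. Aliquots were heated for 3 min over 48°C-58°C and pooled before NP-40 was added to 0.5% at 4°C. The supernatant from 21,000xg for 90 min was quantified by TMTpro 16plex LC-MS/MS with channel sums equalised. Values are reported from duplicates as log-two fold change in thermal stability relative to solvent controls.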

By UniProt entry, the sequences of proteins in these tests, tags left out. Where a name states a change or a piece, a line headed by the entry shows the natural chain unless it says otherwise.
UniProt Q9BSR8: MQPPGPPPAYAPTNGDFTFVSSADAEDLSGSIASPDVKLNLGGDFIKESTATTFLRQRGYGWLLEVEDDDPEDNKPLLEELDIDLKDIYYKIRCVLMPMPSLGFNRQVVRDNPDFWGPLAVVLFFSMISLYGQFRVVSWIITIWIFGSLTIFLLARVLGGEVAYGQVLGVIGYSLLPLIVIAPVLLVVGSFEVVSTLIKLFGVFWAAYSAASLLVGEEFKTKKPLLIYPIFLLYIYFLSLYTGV
UniProt P62258: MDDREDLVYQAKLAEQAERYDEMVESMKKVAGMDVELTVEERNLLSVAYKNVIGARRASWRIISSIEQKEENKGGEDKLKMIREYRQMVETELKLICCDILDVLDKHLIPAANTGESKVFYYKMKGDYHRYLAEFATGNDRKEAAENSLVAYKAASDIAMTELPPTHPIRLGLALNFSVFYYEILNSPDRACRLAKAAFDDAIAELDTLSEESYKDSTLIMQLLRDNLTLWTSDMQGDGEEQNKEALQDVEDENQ
UniProt Q96GY0: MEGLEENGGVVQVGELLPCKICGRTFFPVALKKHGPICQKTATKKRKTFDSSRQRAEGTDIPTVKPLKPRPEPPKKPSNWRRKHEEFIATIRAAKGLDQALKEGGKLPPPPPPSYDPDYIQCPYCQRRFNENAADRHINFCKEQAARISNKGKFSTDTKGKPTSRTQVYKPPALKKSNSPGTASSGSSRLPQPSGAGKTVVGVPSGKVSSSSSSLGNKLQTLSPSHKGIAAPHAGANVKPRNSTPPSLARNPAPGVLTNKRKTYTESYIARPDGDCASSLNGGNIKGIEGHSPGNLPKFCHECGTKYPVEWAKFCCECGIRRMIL
UniProt Q8WU90: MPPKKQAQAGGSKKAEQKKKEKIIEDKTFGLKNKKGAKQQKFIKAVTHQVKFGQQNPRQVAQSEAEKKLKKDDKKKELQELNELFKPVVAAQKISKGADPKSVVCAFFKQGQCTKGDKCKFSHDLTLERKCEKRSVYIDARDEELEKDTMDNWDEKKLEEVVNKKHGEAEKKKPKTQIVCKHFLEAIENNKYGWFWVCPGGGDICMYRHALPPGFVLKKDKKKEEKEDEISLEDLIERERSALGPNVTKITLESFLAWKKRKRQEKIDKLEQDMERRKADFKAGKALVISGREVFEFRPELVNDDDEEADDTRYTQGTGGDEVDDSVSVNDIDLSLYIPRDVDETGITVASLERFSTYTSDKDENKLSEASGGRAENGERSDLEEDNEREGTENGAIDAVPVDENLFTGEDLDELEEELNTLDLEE
UniProt P49750: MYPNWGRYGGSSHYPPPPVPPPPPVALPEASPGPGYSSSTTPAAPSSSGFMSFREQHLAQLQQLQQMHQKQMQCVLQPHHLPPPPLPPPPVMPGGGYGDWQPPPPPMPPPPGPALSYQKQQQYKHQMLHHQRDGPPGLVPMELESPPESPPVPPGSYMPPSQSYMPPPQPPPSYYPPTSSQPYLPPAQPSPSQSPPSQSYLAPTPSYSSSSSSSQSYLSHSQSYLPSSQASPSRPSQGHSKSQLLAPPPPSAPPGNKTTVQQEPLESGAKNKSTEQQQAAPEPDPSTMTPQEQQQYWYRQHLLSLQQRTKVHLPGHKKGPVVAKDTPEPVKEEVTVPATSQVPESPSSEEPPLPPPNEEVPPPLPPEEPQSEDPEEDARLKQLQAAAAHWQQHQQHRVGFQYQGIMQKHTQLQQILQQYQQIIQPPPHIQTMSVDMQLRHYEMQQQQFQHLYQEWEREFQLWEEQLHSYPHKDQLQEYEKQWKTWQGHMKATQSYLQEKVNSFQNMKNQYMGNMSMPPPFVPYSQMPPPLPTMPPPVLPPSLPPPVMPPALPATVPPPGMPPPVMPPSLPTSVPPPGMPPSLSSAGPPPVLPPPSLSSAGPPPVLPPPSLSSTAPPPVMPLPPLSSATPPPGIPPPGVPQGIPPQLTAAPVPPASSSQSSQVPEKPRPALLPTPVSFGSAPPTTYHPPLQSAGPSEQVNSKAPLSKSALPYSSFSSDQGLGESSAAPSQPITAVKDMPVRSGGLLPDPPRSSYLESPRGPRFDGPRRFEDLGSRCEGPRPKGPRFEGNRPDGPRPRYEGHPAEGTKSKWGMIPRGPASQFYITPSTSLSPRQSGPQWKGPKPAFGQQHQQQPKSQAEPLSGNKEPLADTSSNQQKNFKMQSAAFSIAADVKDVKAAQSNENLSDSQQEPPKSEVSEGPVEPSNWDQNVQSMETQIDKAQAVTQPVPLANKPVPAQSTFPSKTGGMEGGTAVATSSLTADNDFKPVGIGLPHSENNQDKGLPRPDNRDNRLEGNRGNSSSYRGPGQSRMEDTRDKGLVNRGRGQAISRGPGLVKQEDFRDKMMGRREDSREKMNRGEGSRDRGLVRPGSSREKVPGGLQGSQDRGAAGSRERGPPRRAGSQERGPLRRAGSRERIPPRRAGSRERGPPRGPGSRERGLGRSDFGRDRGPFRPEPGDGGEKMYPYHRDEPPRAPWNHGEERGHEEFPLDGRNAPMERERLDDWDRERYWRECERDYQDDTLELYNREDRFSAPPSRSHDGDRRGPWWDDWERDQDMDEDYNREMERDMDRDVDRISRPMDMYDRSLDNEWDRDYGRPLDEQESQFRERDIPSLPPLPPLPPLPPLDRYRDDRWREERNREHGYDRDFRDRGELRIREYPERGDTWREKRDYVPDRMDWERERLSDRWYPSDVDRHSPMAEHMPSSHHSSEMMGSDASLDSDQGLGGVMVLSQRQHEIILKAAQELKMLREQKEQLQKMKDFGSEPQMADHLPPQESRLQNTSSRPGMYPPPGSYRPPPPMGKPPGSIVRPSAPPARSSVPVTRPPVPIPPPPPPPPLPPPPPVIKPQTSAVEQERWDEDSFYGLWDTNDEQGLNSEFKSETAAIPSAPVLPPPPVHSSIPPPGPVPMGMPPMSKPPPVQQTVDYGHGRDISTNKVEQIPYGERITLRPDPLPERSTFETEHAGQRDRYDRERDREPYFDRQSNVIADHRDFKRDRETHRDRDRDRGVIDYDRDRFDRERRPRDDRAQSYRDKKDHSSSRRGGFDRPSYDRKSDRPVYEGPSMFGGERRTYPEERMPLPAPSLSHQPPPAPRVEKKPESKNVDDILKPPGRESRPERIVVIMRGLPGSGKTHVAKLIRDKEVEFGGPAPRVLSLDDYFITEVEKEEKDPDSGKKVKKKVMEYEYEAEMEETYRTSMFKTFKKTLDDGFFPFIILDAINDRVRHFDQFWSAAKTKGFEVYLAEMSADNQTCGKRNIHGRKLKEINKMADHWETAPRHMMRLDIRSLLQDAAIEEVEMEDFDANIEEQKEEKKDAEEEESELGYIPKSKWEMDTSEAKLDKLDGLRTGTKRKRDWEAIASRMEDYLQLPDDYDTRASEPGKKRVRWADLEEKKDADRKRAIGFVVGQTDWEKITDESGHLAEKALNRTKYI
UniProt Q9ULJ3: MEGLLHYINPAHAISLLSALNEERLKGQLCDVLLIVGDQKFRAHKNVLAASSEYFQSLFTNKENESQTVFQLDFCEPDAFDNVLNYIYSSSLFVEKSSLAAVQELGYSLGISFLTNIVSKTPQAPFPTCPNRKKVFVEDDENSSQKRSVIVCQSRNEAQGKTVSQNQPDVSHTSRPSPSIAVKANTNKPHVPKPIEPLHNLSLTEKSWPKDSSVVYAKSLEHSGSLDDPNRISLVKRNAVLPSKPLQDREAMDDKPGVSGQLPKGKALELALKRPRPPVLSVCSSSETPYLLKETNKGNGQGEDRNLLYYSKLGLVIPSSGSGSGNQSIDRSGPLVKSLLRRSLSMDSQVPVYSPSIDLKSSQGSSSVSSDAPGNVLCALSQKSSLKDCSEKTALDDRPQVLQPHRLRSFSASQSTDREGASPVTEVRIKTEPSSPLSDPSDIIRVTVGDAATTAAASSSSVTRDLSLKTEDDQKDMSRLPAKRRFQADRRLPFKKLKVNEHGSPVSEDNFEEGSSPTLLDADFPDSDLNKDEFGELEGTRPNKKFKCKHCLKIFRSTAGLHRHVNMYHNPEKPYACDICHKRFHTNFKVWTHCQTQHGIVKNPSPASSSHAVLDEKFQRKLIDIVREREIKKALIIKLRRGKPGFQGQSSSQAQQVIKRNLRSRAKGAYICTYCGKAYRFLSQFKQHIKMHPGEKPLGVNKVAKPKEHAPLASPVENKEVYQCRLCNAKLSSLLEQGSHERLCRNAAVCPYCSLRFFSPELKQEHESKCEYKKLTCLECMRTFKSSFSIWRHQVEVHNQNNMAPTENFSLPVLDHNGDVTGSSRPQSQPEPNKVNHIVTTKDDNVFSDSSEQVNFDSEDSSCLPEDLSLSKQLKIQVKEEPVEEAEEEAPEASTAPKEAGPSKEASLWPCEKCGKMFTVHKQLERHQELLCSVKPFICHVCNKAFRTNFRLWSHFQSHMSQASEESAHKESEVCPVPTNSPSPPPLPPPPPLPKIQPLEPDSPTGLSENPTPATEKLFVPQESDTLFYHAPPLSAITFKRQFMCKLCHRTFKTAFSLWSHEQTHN
UniProt Q8WV99: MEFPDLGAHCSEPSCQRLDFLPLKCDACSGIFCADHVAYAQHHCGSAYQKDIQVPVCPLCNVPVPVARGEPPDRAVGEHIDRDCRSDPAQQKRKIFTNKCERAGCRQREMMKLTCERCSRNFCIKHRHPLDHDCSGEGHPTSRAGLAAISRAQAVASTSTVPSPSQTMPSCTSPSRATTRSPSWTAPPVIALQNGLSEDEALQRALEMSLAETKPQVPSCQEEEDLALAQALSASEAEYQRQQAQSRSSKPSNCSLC
UniProt Q9HCC9: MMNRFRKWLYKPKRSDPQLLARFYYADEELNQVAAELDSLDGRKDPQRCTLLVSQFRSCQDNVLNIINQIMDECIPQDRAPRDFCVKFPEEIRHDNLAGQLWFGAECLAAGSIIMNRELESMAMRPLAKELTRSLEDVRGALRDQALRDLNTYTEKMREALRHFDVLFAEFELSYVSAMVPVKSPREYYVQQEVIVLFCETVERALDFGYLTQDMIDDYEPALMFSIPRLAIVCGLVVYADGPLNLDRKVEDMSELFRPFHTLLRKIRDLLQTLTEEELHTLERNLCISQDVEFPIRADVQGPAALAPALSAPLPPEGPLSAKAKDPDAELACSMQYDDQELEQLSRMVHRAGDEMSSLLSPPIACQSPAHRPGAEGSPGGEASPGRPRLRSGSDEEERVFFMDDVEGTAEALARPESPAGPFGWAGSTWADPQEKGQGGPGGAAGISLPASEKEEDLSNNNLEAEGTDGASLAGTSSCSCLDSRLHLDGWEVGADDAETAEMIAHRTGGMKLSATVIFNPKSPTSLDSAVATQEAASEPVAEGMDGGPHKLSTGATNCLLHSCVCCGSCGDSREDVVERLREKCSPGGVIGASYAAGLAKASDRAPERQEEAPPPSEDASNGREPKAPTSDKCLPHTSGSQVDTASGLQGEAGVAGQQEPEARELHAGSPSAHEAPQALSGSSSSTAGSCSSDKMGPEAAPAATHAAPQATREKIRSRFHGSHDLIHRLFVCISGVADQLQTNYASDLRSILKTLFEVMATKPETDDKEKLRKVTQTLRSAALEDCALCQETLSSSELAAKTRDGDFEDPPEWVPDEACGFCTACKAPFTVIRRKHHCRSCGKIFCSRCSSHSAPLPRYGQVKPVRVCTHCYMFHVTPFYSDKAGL
UniProt Q9UGR2: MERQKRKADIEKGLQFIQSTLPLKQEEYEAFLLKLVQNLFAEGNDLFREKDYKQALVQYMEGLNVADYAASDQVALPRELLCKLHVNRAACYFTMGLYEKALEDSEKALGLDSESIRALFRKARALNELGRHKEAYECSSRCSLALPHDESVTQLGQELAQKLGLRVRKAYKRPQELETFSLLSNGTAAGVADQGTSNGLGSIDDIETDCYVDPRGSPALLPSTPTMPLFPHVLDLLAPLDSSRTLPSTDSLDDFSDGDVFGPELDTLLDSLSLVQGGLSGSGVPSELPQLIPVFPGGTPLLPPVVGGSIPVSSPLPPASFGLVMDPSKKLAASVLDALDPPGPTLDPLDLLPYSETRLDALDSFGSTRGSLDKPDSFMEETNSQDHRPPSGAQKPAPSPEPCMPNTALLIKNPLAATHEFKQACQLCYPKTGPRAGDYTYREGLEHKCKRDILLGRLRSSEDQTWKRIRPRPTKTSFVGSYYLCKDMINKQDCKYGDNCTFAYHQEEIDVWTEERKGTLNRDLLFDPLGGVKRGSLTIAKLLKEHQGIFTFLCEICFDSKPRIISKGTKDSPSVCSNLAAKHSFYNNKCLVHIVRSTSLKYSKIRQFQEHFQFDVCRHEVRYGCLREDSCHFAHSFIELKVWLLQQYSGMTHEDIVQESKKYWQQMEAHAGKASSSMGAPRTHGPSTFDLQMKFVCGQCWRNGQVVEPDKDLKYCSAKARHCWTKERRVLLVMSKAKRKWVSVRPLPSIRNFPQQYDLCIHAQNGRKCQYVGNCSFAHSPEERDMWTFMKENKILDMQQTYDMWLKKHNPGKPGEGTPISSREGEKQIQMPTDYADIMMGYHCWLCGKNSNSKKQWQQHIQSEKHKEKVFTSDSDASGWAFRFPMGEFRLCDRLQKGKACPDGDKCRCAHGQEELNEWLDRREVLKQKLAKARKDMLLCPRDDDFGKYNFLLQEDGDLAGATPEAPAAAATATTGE

[2] = compound: CN1CCc2c(c3ccccc3n2Cc2ccc(C(=O)NO)cc2)C1 [Tubastatin A]
Outline: as §1

[3] = compound: CNC(=O)C1=CC=CC=C1NC2=NC(=NC=C2Cl)NC3=C(C=C(C=C3)N4CCOCC4)OC
Outline: as §1

[4] = compound: CNC(=O)c1ccc(Nc2ncc(C(F)(F)F)c(NCc3nccnc3N(C)S(C)(=O)=O)n2)cc1 [defactinib]
Outline: as §1

[5] = compound: CNc1nc(-c2ccc3c(N)n[nH]c3c2)cc(N2C[C@@H](C(=O)NC3CCCCC3)CC[C@H]2C)n1
Outline: as §1

[6] = compound: COC(=O)N[C@@H](C)CNc1nccc(-c2cn(C(C)C)nc2-c2cc(Cl)cc(NS(C)(=O)=O)c2F)n1 [encorafenib]
Outline: as §1

[7] = compound: COC(=O)[C@H](CCSC)NC(=O)C1=C(C=C(C=C1)NC[C@H](CS)N)C2=CC=CC=C2
Outline: as §1

[8] = compound: COc1cc(Nc2ncc3c(n2)-c2ccc(Cl)cc2C(c2c(F)cccc2OC)=NC3)ccc1C(=O)O [alisertib]
Outline: as §1

[9] = compound: COc1cc2nc(-c3cc(F)ccc3O)nc(N[C@@H]3CNC[C@H]3C(C)(C)O)c2cc1OC
Outline: as §1

[10] = compound: COc1cc2ncnc(Nc3ccc(F)c(Cl)c3)c2cc1OCCCN1CCOCC1 [gefitinib]
Outline: as §1

[11] = compound: CS(=O)(=O)CCNCc1ccc(-c2ccc3ncnc(Nc4ccc(OCc5cccc(F)c5)c(Cl)c4)c3c2)o1 [lapatinib]
Outline: as §1

[12] = compound: CS(=O)(=O)N1CCN(Cc2cc3nc(-c4cccc5[nH]ncc45)nc(N4CCOCC4)c3s2)CC1 [pictilisib]
Outline: as §1

[13] = compound: C[C@@H](Oc1cc(-c2cnn(C3CCNCC3)c2)cnc1N)c1c(Cl)ccc(F)c1Cl [crizotinib]
Outline: as §1

[14] = compound: C[C@H](C1=CC=C(C=C1)C(=O)NC2=C3C=CNC3=NC=C2)N
Outline: as §1

[15] = compound: C[C@H](Nc1ncnc2nc[nH]c12)c1cc2cccc(Cl)c2c(=O)n1-c1ccccc1 [duvelisib]
Outline: as §1

[16] = compound: Cc1cc(Nc2cc(CN3CCOCC3)c3nc(C)c(Cc4ccc(Cl)cc4F)n3n2)n[nH]1 [gandotinib]
Outline: as §1

[17] = compound: Cc1cc(Nc2cc(N3CCN(C)CC3)nc(Sc3ccc(NC(=O)C4CC4)cc3)n2)n[nH]1 [tozasertib]
Outline: as §1

[18] = compound: Cc1ccc(-n2nc(C(C)(C)C)cc2NC(=O)Nc2ccc(OCCN3CCOCC3)c3ccccc23)cc1 [doramapimod]
Outline: as §1

[19] = compound: Cc1ccc(NC(=O)c2ccc(CN3CC[C@H](N(C)C)C3)c(C(F)(F)F)c2)cc1Nc1nccc(-c2cncnc2)n1 [bafetinib]
Outline: as §1

[20] = compound: Cc1cccc(CC(=O)N2CCc3c2ccc(-c2cn(C)c4ncnc(N)c24)c3F)n1
Outline: as §1

Target	log2 fold change [1]	log2 fold change [2]	log2 fold change [3]	log2 fold change [4]	log2 fold change [5]	log2 fold change [6]	log2 fold change [7]	log2 fold change [8]	log2 fold change [9]	log2 fold change [10]	log2 fold change [11]	log2 fold change [12]	log2 fold change [13]	log2 fold change [14]	log2 fold change [15]	log2 fold change [16]	log2 fold change [17]	log2 fold change [18]	log2 fold change [19]	log2 fold change [20]
YIPF4 (UniProt Q9BSR8)	inactive: 0.033	inactive: 0.034	inactive: 0.021	inactive: 0.041	inactive: 0.091	inactive: 0.022	inactive: -0.036	inactive: 0.028	inactive: 0.011	inactive: -0.049	inactive: -0.017	inactive: 0.035	inactive: -0.021	inactive: -0.007	inactive: 0.007	inactive: 0.026	inactive: -0.011	inactive: 0.025	inactive: -0.031	inactive: 0.051
YME1L1 (UniProt Q96TA2)	inactive: 0.018	inactive: 0.048	inactive: 0.011	inactive: 0.018	inactive: -0.061	inactive: 0.05	active: -0.301	inactive: -0.016	inactive: 0.028	inactive: 0.042	inactive: -0.025	inactive: -0.034	inactive: -0.073	inactive: 0.01	inactive: -0.017	inactive: -0.112	inactive: 0.048	inactive: -0.023	inactive: -0.024	inactive: 0.055
YWHAE (UniProt P62258)	inactive: 0.004	inactive: 0.03	inactive: -0.023	inactive: -0.012	inactive: -0.019	inactive: 0.001	inactive: -0.026	inactive: 0	inactive: 0	inactive: 0.008	inactive: 0.022	inactive: 0.002	inactive: 0.004	inactive: 0.001	inactive: 0.016	inactive: 0.01	inactive: 0.002	inactive: 0.02	inactive: -0.002	inactive: -0.018
ZC2HC1A (UniProt Q96GY0)	inactive: -0.034	inactive: -0.044	inactive: -0.021	inactive: -0.155	inactive: -0.04	inactive: 0.03	active: -0.235	inactive: -0.073	inactive: -0.021	inactive: 0.019	inactive: 0.004	inactive: 0.056	inactive: -0.009	inactive: -0.082	inactive: 0	inactive: 0.053	inactive: 0.007	inactive: -0.021	inactive: 0.052	inactive: 0.103
ZBTB8OS (UniProt Q8IWT0)	inactive: -0.026	inactive: 0.01	inactive: -0.013	inactive: 0.013	inactive: -0.054	inactive: -0.002	inactive: 0.02	inactive: -0.043	inactive: -0.065	inactive: 0.005	inactive: -0.008	inactive: 0.013	inactive: 0.066	inactive: -0.096	inactive: -0.065	inactive: 0.047	inactive: 0.003	inactive: -0.054	inactive: -0.06	inactive: 0.023
ZC3H15 (UniProt Q8WU90)	inactive: -0.036	inactive: 0.014	inactive: -0.005	inactive: 0.01	inactive: 0.04	inactive: -0.002	inactive: -0.057	inactive: -0.008	inactive: -0.003	inactive: -0.011	inactive: -0.006	inactive: 0.027	inactive: -0.007	inactive: -0.057	inactive: 0.019	inactive: 0.06	inactive: -0.022	inactive: 0.045	inactive: -0.005	inactive: 0.021
YLPM1 (UniProt P49750)	inactive: 0.061	inactive: -0.041	inactive: 0.01	inactive: 0.041	inactive: 0.131	inactive: 0.049	inactive: -0.09	inactive: -0.033	inactive: 0	inactive: -0.086	inactive: 0.031	inactive: -0.019	inactive: 0.064	inactive: 0.147	inactive: 0.009	inactive: -0.067	inactive: 0.017	inactive: -0.042	inactive: -0.09	inactive: -0.054
XPR1 (UniProt Q9UBH6)	inactive: -0.005	inactive: -0.013	inactive: 0.145	inactive: -0.026	inactive: 0.001	inactive: 0.031	inactive: 0.035	inactive: -0.057	inactive: -0.014	inactive: 0.032	inactive: 0.025	inactive: -0.01	inactive: -0.079	inactive: 0.048	inactive: 0.015	inactive: -0.072	inactive: 0	inactive: -0.038	inactive: -0.024	inactive: -0.022
ZBTB21 (UniProt Q9ULJ3)	inactive: -0.077	inactive: -0.033	inactive: -0.071	inactive: 0.033	inactive: 0.059	inactive: 0.038	inactive: -0.176	inactive: 0.074	inactive: 0.042	inactive: -0.036	inactive: -0.001	inactive: -0.021	inactive: 0.091	inactive: -0.095	inactive: -0.009	inactive: 0.067	inactive: -0.013	inactive: 0.011	inactive: -0.005	inactive: 0.1
ZDHHC5 (UniProt Q9C0B5)	inactive: -0.002	inactive: 0.049	inactive: 0.017	inactive: 0.038	inactive: 0.042	inactive: 0.003	inactive: -0.034	inactive: -0.041	inactive: 0.017	inactive: 0.095	inactive: -0.018	inactive: -0.037	inactive: 0.006	inactive: 0	inactive: 0.024	inactive: -0.026	inactive: 0.022	inactive: 0.019	inactive: -0.028	inactive: -0.011
ZFAND2B (UniProt Q8WV99)	inactive: -0.069	inactive: 0.023	inactive: -0.005	inactive: -0.009	inactive: 0.119	inactive: 0.048	inactive: -0.026	inactive: 0.027	inactive: -0.111	inactive: 0.066	inactive: -0.004	inactive: -0.022	inactive: -0.02	inactive: -0.158	inactive: 0.03	inactive: 0.227	inactive: -0.02	inactive: 0.144	inactive: 0.023	inactive: 0.129
ZFYVE28 (UniProt Q9HCC9)	inactive: 0.019	inactive: 0.052	inactive: -0.095	inactive: 0.054	inactive: 0.076	inactive: 0.007	inactive: 0.06	inactive: -0.086	inactive: 0.085	inactive: 0.201	inactive: -0.137	inactive: 0.064	inactive: -0.012	inactive: 0.006	inactive: 0.105	inactive: -0.024	inactive: 0.019	inactive: -0.107	inactive: 0.022	inactive: 0.006
ZC3H18 (UniProt E7ERS3)	inactive: -0.004	inactive: -0.083	inactive: 0.017	inactive: 0.013	inactive: 0.001	inactive: 0.076	inactive: -0.022	inactive: 0	inactive: -0.017	inactive: -0.017	inactive: -0.007	inactive: -0.016	inactive: 0.021	inactive: -0.029	inactive: -0.012	inactive: 0.072	inactive: 0.031	inactive: 0.117	inactive: -0.028	inactive: 0.007
YTHDF3 (UniProt Q7Z739)	inactive: 0.03	inactive: -0.108	inactive: -0.071	inactive: -0.05	inactive: -0.112	inactive: 0.097	inactive: 0.024	inactive: 0.043	inactive: 0.009	inactive: 0.013	inactive: -0.065	inactive: 0.05	inactive: 0.01	inactive: -0.035	inactive: 0.017	inactive: 0.107	inactive: -0.03	inactive: 0.078	inactive: -0.073	inactive: 0.097
ZFR (UniProt Q96KR1)	inactive: 0.016	inactive: -0.031	inactive: -0.005	inactive: -0.03	inactive: 0.02	inactive: 0.068	inactive: -0.085	inactive: -0.018	inactive: -0.034	inactive: -0.031	inactive: -0.017	inactive: -0.062	inactive: 0.025	inactive: -0.009	inactive: -0.051	inactive: -0.065	inactive: -0.008	inactive: 0.017	inactive: 0.082	inactive: 0.07
ZC3H7B (UniProt Q9UGR2)	inactive: 0.004	inactive: -0.095	inactive: 0.006	inactive: 0.092	inactive: -0.079	inactive: 0.06	inactive: -0.008	inactive: 0.136	inactive: -0.067	inactive: -0.042	inactive: 0.02	inactive: -0.019	inactive: -0.082	inactive: -0.012	inactive: 0.004	inactive: -0.144	inactive: 0.031	inactive: 0.041	inactive: -0.182	inactive: 0.046

Reference: the supplement of paper PMC10849652
